No constants are given. Whether binding was seen depends on the method and setting. Values belong to the binder of their own block, whether it stands above or below them.
Experiments:
Assay in all cases: translational diffusion NMR (DOSY); peptide alone at 100 µM, 100 mM sodium phosphate pH 7.2, 100% D2O, 10 °C, 1% dioxane as reference for Rh; both purified
[1] = target: NTT-AGT T9E peptide (human)
[2] = target: NTT-AGT T9E-P11L peptide (human)
[3] = target: NTT-AGT P11L peptide (human)
[4] = target: NTT-AGT WT peptide (human)

- binding [1]: no binding (tested: 100 µM)
Binder: MASHKLLVEPPKALLKPLSIPY (C-terminal amide (on the added Y)) [NTT-AGT T9E peptide]

- binding [4]: no binding (tested: 100 µM)
Binder: MASHKLLVTPPKALLKPLSIPY (C-terminal amide (on the added Y)) [NTT-AGT WT peptide]

Continued, binder first:

Binder: MASHKLLVEPLKALLKPLSIPY (C-terminal amide (on the added Y)) [NTT-AGT T9E-P11L peptide]
- binding [2]: no binding (tested: 100 µM)

Binder: MASHKLLVTPLKALLKPLSIPY (C-terminal amide (on the added Y)) [NTT-AGT P11L peptide]
- binding [3]: no binding (tested: 100 µM)

Source: article PMC9786777, “Phosphorylation of Thr9 Affects the Folding Landscape of the N-Terminal Segment of Human AGT Enhancing Protein Aggregation of Disease-Causing Mutants” (Molecules, 2022)
